Consider 11 targets from the supplement of paper PMC12819154, “High-throughput peptide-centric local stability assay extends protein–ligand identification to membrane proteins, tissues and bacteria” (Nature Structural & Molecular Biology, 2025).

Protein sequences, listed by entry. Tags and fused reporters are not part of them. Lines headed by an entry give the natural chain unless they say otherwise; changes in a name come on top.
UniProt P77256: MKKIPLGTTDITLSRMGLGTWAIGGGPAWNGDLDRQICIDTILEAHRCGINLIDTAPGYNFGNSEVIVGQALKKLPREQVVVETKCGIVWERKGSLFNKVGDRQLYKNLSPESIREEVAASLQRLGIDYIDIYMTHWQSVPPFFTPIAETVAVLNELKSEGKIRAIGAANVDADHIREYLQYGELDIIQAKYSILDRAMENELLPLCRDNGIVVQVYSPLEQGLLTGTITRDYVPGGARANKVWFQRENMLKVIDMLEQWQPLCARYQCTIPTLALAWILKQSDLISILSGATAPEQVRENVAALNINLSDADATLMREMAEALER
UniProt P76330: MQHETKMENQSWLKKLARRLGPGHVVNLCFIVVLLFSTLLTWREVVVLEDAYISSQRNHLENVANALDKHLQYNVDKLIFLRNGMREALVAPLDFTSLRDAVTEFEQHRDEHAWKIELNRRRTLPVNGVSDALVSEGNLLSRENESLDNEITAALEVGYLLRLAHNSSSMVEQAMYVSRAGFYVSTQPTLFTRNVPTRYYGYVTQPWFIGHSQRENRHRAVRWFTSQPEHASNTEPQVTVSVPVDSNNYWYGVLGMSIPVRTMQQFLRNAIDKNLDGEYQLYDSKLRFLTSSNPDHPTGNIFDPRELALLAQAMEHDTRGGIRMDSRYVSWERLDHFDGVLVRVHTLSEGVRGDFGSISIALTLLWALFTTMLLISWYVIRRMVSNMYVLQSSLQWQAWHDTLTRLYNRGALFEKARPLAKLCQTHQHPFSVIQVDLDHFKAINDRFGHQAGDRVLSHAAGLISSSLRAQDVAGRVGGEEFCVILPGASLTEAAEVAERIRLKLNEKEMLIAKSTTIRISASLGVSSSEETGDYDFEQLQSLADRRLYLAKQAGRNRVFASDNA
UniProt P75988: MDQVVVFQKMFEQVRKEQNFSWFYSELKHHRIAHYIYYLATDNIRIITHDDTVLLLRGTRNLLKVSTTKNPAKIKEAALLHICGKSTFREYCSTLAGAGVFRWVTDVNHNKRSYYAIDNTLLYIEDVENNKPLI
UniProt P75966: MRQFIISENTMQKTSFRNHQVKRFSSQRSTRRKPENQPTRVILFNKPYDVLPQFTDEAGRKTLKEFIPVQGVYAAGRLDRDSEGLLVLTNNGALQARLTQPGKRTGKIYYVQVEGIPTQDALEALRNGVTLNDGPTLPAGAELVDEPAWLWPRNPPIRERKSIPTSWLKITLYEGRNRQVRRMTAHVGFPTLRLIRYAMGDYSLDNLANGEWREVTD
UniProt P76063: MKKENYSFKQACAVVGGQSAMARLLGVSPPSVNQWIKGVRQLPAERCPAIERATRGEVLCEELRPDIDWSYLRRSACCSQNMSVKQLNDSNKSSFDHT
UniProt P77360: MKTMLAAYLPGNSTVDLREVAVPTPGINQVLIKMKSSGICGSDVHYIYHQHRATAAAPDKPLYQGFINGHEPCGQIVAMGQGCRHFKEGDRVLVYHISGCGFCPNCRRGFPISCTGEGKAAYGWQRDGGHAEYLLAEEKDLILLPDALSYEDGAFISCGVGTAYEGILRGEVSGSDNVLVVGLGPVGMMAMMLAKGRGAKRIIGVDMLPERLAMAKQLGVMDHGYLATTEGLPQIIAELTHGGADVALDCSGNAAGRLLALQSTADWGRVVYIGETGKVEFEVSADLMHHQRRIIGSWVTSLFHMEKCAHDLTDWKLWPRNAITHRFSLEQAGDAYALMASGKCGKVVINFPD
UniProt P77615: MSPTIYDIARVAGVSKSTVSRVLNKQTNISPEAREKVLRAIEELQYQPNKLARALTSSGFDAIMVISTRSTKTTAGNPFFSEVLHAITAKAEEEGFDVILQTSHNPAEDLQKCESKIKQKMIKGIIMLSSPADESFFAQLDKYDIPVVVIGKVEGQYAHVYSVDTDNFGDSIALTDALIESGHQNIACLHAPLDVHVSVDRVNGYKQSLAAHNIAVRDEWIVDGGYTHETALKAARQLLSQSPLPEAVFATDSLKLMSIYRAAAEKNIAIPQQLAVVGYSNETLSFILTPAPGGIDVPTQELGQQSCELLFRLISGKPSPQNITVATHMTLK
UniProt P77439: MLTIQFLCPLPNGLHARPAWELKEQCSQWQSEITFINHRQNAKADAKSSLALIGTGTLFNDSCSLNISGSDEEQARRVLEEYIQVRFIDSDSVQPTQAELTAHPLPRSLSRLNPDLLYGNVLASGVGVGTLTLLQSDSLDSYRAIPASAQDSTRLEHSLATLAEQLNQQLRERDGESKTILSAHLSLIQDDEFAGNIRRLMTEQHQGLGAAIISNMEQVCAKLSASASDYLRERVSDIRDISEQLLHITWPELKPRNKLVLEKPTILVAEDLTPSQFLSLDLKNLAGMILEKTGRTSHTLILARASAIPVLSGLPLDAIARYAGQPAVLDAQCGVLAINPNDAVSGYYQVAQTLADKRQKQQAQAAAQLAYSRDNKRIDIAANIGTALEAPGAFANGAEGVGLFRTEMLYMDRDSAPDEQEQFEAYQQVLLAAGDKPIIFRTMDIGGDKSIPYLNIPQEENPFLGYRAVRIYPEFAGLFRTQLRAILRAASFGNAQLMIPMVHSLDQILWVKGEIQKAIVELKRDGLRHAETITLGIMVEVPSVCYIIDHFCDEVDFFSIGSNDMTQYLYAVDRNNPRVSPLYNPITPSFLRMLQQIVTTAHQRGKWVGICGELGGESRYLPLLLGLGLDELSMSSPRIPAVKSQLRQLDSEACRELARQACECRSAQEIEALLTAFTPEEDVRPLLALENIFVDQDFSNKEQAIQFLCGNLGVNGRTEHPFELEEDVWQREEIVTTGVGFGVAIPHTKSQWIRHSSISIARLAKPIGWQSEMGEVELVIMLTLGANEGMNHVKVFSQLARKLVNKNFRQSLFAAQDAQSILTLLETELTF
UniProt P76632: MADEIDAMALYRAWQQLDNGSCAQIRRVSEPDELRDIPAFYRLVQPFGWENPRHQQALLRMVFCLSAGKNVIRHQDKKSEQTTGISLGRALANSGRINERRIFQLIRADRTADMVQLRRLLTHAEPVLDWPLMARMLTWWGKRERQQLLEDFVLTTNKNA
UniProt P76015: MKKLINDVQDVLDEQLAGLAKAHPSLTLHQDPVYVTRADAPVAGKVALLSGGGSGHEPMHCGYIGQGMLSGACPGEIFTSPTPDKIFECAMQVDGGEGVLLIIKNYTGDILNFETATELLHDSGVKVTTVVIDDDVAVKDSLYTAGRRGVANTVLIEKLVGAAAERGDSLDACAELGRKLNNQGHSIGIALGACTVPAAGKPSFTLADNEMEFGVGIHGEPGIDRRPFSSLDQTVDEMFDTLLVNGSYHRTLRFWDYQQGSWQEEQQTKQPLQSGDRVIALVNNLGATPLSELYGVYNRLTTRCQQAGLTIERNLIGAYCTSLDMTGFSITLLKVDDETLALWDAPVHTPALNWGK
UniProt P77509: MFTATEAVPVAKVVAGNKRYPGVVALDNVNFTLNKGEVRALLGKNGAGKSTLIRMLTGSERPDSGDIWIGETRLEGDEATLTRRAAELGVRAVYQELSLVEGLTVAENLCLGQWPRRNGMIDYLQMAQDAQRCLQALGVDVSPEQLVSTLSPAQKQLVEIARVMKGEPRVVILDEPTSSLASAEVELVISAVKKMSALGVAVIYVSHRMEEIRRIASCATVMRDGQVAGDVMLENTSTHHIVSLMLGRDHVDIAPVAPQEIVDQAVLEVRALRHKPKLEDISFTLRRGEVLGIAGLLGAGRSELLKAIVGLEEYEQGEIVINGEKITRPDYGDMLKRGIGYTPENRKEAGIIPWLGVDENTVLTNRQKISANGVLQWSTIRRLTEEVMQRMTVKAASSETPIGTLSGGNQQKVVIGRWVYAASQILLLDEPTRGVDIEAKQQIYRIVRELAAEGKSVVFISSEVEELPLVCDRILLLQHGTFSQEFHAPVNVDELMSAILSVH

This is one part of the list. Small differences around the control level are noise.

Compound in this assay: CC1(C)S[C@@H]2[C@H](NC(=O)[C@H](N)c3ccccc3)C(=O)N2[C@H]1C(=O)O [ampicillin]
Description: log2 fold change of tryptic peptide abundance, ligand vs vehicle (limited proteolysis) (log2 ratio); higher = more trypsin-susceptible (destabilized). To be noted: ligand concentration: 10 uM; sample: E. coli crude lysate.
For the target “UniProt P77256 (peptide sequence: AIGAANVDADHIR, peptide start residue: 165)”, the log2 fold change worked out at 0.451. In the case of “UniProt P76330 (peptide sequence: LCQTHQHPFSVIQVDLDHFK, peptide start residue: 422)” it was 0.42; in that of “UniProt P75988 (peptide sequence: VSTTKNPAK, peptide start residue: 65)”, 0.236.

For “UniProt P75966 (peptide sequence: RMTAHVGFPTLR, peptide start residue: 182)”, the log2 fold change turned out to be 0.354. With “UniProt P76063 (peptide sequence: SACCSQNMSVK, peptide start residue: 75)”, the log2 fold change is 0.513. Take “UniProt P77360 (peptide sequence: LLALQSTADWGR, peptide start residue: 258)”: the log2 fold change is -0.461.

As for “UniProt P77615 (peptide sequence: AIEELQYQPNK, peptide start residue: 40)”, the log2 fold change is -0.355. For “UniProt P77439 (peptide sequence: MLQQIVTTAHQR, peptide start residue: 593)”, the log2 fold change was 0.43. Take “UniProt P76632 (peptide sequence: SEQTTGISLGR, peptide start residue: 79)”: the log2 fold change was 0.0877.

In the case of “UniProt P76015 (peptide sequence: GDSLDACAELGR, peptide start residue: 167)”, the log2 fold change is -0.145. As to “UniProt P77509 (peptide sequence: RAAELGVR, peptide start residue: 84)”, the log2 fold change worked out at 0.101.
